Reference: US20160201132A1, “GENE EXPRESSION BIOMARKERS OF LAQUINIMOD RESPONSIVENESS” (Teva Pharmaceutical Industries Ltd., priority 2013, published 2016)
This continues a long series; more values of the same kind are listed elsewhere.

Tested on: PBMC of RRMS patients
Assay: Gene expression microarray analysis (HG-U133A-2) of PBMC from RRMS patients treated with LAQ, ancillary study to ALLEGRO
Format: in vivo, human
Excerpt: The goal of this ancillary study was to characterize gene expression changes and corresponding biological mechanisms induced in PBMC of RRMS patients by LAQ treatment. According to ALLEGRO clinical trial inclusion criteria, 25 patients were randomly assigned to receive LAQ (n=13, age 38.8±2.3 years, female/male ratio: 8/5) or placebo (n=12, age 37.2±3.4 years, female/male ratio: 8/4).
Peripheral blood samples were obtained from RRMS patients at baseline before start of LAQ treatment or placebo, after 0, 1, 6 and 24 month of treatment (visit 0, 1, 6 and 7 according to ALLEGRO clinical trial protocol correspondently) for gene microarray analysis.
Briefly, 1) Peripheral blood mononuclear cells (PBMC) were obtained from RRMS patients that participated in ALLEGRO and were treated daily with 0.6 mg LAQ or placebo. PBMC were subjected for gene expression analysis (HU-133A-2-Affymatrix arrays) at baseline and at 1 and 6 months of LAQ treatment; 2) Data was analyzed by Partek Genomics Solution software. Most informative genes (MIGs) were defined as those that differentiated between groups with p<0.01. Gene functional annotation, enrichment and pathway analysis were performed by Ingenuity software. For each time point, genes that changed in placebo group were excluded from further analysis; and 3) Verification of LAQ related mechanism was performed by Western blot.
PBMC were extracted from 15 ml peripheral blood, separated by Ficoll-Hypaque gradient. Total RNA was extracted using both Trizol (Invitrogen, USA) and Phase-Lock-Gel columns (Eppendorf, Germany) including a DNase digestion step. RNA integrity was assessed by RNA Experion automated electrophoresis system (Bio-Rad Laboratories, Hercules, Calif.).
Probe synthesis using 3 μg total RNA, hybridization, detection, and scanning was performed according to the standard Affymetrix, Inc. USA protocols; cDNA was synthesized using the Two-Cycle cDNA Synthesis Kit (Affymetrix, Inc., USA), and in-vitro transcription performed with the GeneChip IVT Labeling Kit (Affymetrix, Inc., USA). The biotin-labeled IVT-RNA was hybridized to HG-U133A-2 arrays containing 18,400 gene transcripts, each corresponding to 14,500 well-annotated human genes, washed in a GeneChip Fluidics Station 450 (Hewlett Packard, USA, GeneArray-™ scanner G2500A) and scanned according to the manufacturer's protocol (Affymetrix, Inc., USA).
Data analysis was performed on Partek Genomics Solution software (www.partek.com; Partek Incorporated, St. Louis, Mo.). Expression values were computed from raw CEL files by applying the Robust Multi-Chip Average (RMA) background correction algorithm. RMA correction included: 1) values background correction; 2) quintile normalization; 3) log 2 transformation; and 4) median polish summarization. The ANOVA, Repeated Measures and correlation analysis implicated in Partek software ware applied to evaluate LAQ effects. Most informative genes MIGs were defined as those that differentiated between experimental groups with p<0.01. All p-values were calculated for False Discovery Rate (FDR) multiple test correction at p=0.05.
Additionally, significance of individual genes was tested by parametric T-test and non parametric Mann-Whitney test using Bootstrapping approach based on repeated permutations of the data with 5% FDR for multiple testing.
Gene functional annotation, enrichment, and pathway analyses to identify the leading biological pathways that operated under LAQ treatment were performed by Ingenuity Pathways Analysis software (www.ingenuity.com).
ANOVA analysis was used to compare PBMC gene expression after 1, 6 or 24 month of LAQ treatment with baseline gene expression.
For each time point inventors performed analysis source of variation in dataset. (FIG. 1). Age, gender and batch effects were considered as confounders regarding LAQ or Placebo related changes. For each time point genes associated with Placebo effect were evaluated and excluded from further analysis. […]

**Q.** What does the source list for `CCN(C(=O)c1c(O)c2c(Cl)cccc2n(C)c1=O)c1ccccc1` [LAQ, 5-chloro-N-ethyl-4-hydroxy-1-methyl-2-oxo-N-phenyl-1,2-dihydroquinoline-3-carboxamide]?
**A.** Fold-Change (4.0 vs. 0.0) (gene HAS2, PBMC, six months of LAQ treatment): −1.117; Fold-Change (4.0 vs. 0.0) (gene HBBP1): −1.195; Fold-Change (4.0 vs. 0.0) (gene HCN2, six months of treatment): −1.155; Fold-Change (4.0 vs. 0.0) (gene HES2, six months of treatment): −1.158; Fold-Change (4.0 vs. 0.0) (gene HFE, after six months of LAQ): −1.266; Fold-Change (4.0 vs. 0.0) (gene HFE, six months of treatment): −1.151; Fold-Change (4.0 vs. 0.0) (gene HGC6.3, six months of treatment): −1.157; Fold-Change (4.0 vs. 0.0) (gene HGF, after six months of LAQ): −1.319; Fold-Change (4.0 vs. 0.0) (gene HIP1R /// LOC100294412, after six months of LAQ): −1.2794; Fold-Change (4.0 vs. 0.0) (gene HIST1H2BN, after six months of LAQ): −1.138; Fold-Change (4.0 vs. 0.0) (gene HMHB1, six months of treatment): −1.144; Fold-Change (4.0 vs. 0.0) (gene HNRNPC /// HNRNPCL1 /// LOC440563 /// LOC649330, after six months of LAQ): −1.24; Fold-Change (4.0 vs. 0.0) (gene HOMER2, after six months of LAQ): −1.14; Fold-Change (4.0 vs. 0.0) (gene HOXA10, after six months of LAQ): −1.303; Fold-Change (4.0 vs. 0.0) (gene HOXC10, six months of treatment): −1.153; Fold-Change (4.0 vs. 0.0) (gene HOXC13, after six months of LAQ): −1.228; Fold-Change (4.0 vs. 0.0) (gene HOXD13, PBMC, six months of LAQ treatment): −1.114; Fold-Change (4.0 vs. 0.0) (gene HPR, PBMC, six months of LAQ treatment): −1.118; Fold-Change (4.0 vs. 0.0) (gene HR44, PBMC, six months of LAQ treatment): −1.114; Fold-Change (4.0 vs. 0.0) (gene HRH1, after six months of LAQ): −1.235; Fold-Change (4.0 vs. 0.0) (gene HS3ST3A1, PBMC, six months of LAQ treatment): −1.107; Fold-Change (4.0 vs. 0.0) (gene HSD17B14): −1.193; Fold-Change (4.0 vs. 0.0) (gene HSF4, six months of treatment): −1.155; Fold-Change (4.0 vs. 0.0) (gene HTR2A, after six months of LAQ): −1.141; Fold-Change (4.0 vs. 0.0) (gene HTR4, after six months of LAQ): −1.2378; Fold-Change (4.0 vs. 0.0) (gene HTR5A, after six months of LAQ): −1.1409; Fold-Change (4.0 vs. 0.0) (gene HTR7): −1.188; Fold-Change (4.0 vs. 0.0) (gene HTR7P, after six months of LAQ): −1.135; Fold-Change (4.0 vs. 0.0) (gene IBSP): −1.187; Fold-Change (4.0 vs. 0.0) (gene ICHG1): −1.1939; Fold-Change (4.0 vs. 0.0) (gene IDUA): −1.194; Fold-Change (4.0 vs. 0.0) (gene IDUA, six months of treatment): −1.156; Fold-Change (4.0 vs. 0.0) (gene IFNA4, six months of treatment): −1.153; Fold-Change (4.0 vs. 0.0) (gene IFNA8, PBMC, six months of LAQ treatment): −1.1136; Fold-Change (4.0 vs. 0.0) (gene IFNA10, after six months of LAQ): −1.143; Fold-Change (4.0 vs. 0.0) (gene IFNW1, six months of treatment): −1.15; Fold-Change (4.0 vs. 0.0) (gene IGH@ /// IGHD /// IGHG1 /// IGHM /// LOC100289944 /// VSIG6): −1.191; Fold-Change (4.0 vs. 0.0) (gene IGHG1, six months of treatment): −1.155; Fold-Change (4.0 vs. 0.0) (gene IKBKG, six months of treatment): −1.149; Fold-Change (4.0 vs. 0.0) (gene IL5RA, after six months of LAQ): −1.13; Fold-Change (4.0 vs. 0.0) (gene IL9, after six months of LAQ): −1.128; Fold-Change (4.0 vs. 0.0) (gene IL11, six months of treatment): −1.157; Fold-Change (4.0 vs. 0.0) (gene IL12B, after six months of LAQ): −1.128; Fold-Change (4.0 vs. 0.0) (gene IL13RA2, six months of treatment): −1.147; Fold-Change (4.0 vs. 0.0) (gene IL20RA, after six months of LAQ): −1.124; Fold-Change (4.0 vs. 0.0) (gene INPP5J, after six months of LAQ): −1.129; Fold-Change (4.0 vs. 0.0) (gene IRS4, PBMC, six months of LAQ treatment): −1.121; Fold-Change (4.0 vs. 0.0) (gene ITGA2, six months of treatment): −1.155; Fold-Change (4.0 vs. 0.0) (gene ITGB3, after six months of LAQ): −1.237; Fold-Change (4.0 vs. 0.0) (gene ITGB5, after six months of LAQ): −1.5805; Fold-Change (4.0 vs. 0.0) (gene ITGB6, six months of treatment): −1.1581; Fold-Change (4.0 vs. 0.0) (gene ITGBL1, six months of treatment): −1.144; Fold-Change (4.0 vs. 0.0) (gene ITIH1, six months of treatment): −1.154; Fold-Change (4.0 vs. 0.0) (gene ITSN1, six months of treatment): −1.148; Fold-Change (4.0 vs. 0.0) (gene ITSN2, PBMC, six months of LAQ treatment): −1.118; Fold-Change (4.0 vs. 0.0) (gene ITSN2, after six months of LAQ): −1.129; Fold-Change (4.0 vs. 0.0) (gene KALRN, six months of treatment): −1.145; Fold-Change (4.0 vs. 0.0) (gene KANK2, after six months of LAQ): −1.238; Fold-Change (4.0 vs. 0.0) (gene KBTBD10, after six months of LAQ): −1.123; Fold-Change (4.0 vs. 0.0) (gene KCNJ5, after six months of LAQ): −1.139; Fold-Change (4.0 vs. 0.0) (gene KCNJ8, six months of treatment): −1.159; Fold-Change (4.0 vs. 0.0) (gene KCNJ12, after six months of LAQ): −1.259; Fold-Change (4.0 vs. 0.0) (gene KCNK2, six months of treatment): −1.159; Fold-Change (4.0 vs. 0.0) (gene KCNMA1, PBMC, six months of LAQ treatment): −1.122; Fold-Change (4.0 vs. 0.0) (gene KCNQ2, after six months of LAQ): −1.227; Fold-Change (4.0 vs. 0.0) (gene KCNS3, six months of treatment): −1.161; Fold-Change (4.0 vs. 0.0) (gene KCNV2, after six months of LAQ): −1.141; Fold-Change (4.0 vs. 0.0) (gene KDELR2, after six months of LAQ): −1.244; Fold-Change (4.0 vs. 0.0) (gene KDR, after six months of LAQ): −1.131; Fold-Change (4.0 vs. 0.0) (gene KIAA0195, after six months of LAQ): −1.282; Fold-Change (4.0 vs. 0.0) (gene KIAA0892, after six months of LAQ): −1.226; Fold-Change (4.0 vs. 0.0) (gene KIAA1199, six months of treatment): −1.146; Fold-Change (4.0 vs. 0.0) (gene KIAA1466, after six months of LAQ): −1.39; Fold-Change (4.0 vs. 0.0) (gene KIAA1644, six months of treatment): −1.144; Fold-Change (4.0 vs. 0.0) (gene KIF1A): −1.177; Fold-Change (4.0 vs. 0.0) (gene KIF5A, six months of treatment): −1.145; Fold-Change (4.0 vs. 0.0) (gene KIF18A, six months of treatment): −1.146; Fold-Change (4.0 vs. 0.0) (gene KIR2DL1 /// KIR2DL2 /// KIR2DL3 /// KIR2DL5A /// KIR2DL5B /// KIR2DS1 /// KIR2DS2 /// KIR2DS3 /// KIR2DS4 /// KIR2DS5 /// KIR3DL2 /// KIR3DL3 /// KIR3DP1 /// LOC727787): −1.1878; Fold-Change (4.0 vs. 0.0) (gene KRT17, after six months of LAQ): −1.122; Fold-Change (4.0 vs. 0.0) (gene KRT19, PBMC, six months of LAQ treatment): −1.115; Fold-Change (4.0 vs. 0.0) (gene KRT20, PBMC, six months of LAQ treatment): −1.104; Fold-Change (4.0 vs. 0.0) (gene KRTAP1-1, six months of treatment): −1.153
